Assay results taken from publication PMC11167044.
No constants are given. Whether binding was seen depends on the method and setting. In cells and extracts the contact can be indirect. Some entries that bind do so weakly or less than the wild type. For part of these data: Sequences can lack the tags named with a protein.

Amino acid sequences for entries named in this document (tags omitted).
UniProt P14618: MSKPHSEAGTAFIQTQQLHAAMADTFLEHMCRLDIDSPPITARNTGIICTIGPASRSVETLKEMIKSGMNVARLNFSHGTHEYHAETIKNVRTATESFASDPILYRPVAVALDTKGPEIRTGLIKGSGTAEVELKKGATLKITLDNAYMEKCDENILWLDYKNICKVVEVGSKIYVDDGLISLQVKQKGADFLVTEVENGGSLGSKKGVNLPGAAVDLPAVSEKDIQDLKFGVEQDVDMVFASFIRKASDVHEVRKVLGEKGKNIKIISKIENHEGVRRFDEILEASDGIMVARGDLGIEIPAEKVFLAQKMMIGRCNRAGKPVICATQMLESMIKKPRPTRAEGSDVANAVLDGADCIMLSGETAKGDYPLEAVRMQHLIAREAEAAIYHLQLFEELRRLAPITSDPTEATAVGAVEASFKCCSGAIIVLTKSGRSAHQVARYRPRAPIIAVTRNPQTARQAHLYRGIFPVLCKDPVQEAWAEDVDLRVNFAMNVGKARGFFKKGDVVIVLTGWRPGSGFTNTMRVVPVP
UniProt P99999: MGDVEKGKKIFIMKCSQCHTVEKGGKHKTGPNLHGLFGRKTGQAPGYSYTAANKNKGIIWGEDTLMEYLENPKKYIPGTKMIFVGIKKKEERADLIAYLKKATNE
UniProt P49841: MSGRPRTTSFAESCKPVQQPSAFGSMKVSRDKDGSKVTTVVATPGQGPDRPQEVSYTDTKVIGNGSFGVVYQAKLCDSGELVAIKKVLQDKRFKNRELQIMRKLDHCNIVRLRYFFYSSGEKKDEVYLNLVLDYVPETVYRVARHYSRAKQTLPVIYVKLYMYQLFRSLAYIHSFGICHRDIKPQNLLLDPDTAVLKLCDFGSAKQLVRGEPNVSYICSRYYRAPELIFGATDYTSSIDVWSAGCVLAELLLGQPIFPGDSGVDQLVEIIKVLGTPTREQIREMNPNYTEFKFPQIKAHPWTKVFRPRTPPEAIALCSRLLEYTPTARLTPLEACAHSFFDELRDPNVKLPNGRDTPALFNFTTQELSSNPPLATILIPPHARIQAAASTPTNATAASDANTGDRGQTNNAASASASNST

Columns and labels:
[1] = biological target: T1, MYG1 stably overexpressed in SW480 cells (human) (UniProt Q9HB07); assay: co-IP; SW480 cells stably overexpressing MYG1; immunoprecipitation from cytoplasm (Cyto) and mitochondria (Mito)
T1 sequence: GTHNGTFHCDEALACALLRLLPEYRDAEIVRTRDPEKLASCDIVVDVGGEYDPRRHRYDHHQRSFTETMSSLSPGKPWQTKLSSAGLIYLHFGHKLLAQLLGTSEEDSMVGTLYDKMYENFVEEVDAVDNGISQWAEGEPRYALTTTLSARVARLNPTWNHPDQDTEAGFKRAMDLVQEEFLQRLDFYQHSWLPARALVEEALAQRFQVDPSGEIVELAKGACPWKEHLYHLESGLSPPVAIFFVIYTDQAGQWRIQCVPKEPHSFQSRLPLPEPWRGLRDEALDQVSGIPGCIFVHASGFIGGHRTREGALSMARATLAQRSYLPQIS

[2] = biological target: T1, MYG1 stably overexpressed in SW480 cells (human); assay: co-IP; whole-cell lysates; antibody on Protein A/G magnetic beads, incubated with lysate 8 to 12 h at 4 °C; lysis buffer 25 mM Tris-HCl pH 7.4, 150 mM NaCl, 1 mM EDTA, 1% NP-40, 5% glycerol; western blot; 293T, HCT116 and LoVo with or without EGF (100 ng/mL, 10 h); SW480 stably overexpressing MYG1
[3] = biological target: T2, C-terminally Flag-tagged human MYG1 (full length) (human) (UniProt Q9HB07); assay: as above
T2 sequence: T1 sequence

[4] = biological target: PKM2 in 293T and HCT116 cells (human) (UniProt P14618); assay: as above
[5] = biological target: PKM2 in LoVo cells (human (LoVo cells)) (UniProt P14618); assay: as above
[6] = biological target: T3, MYG1 in LoVo cells (human (LoVo cells)) (UniProt Q9HB07); assay: as above
T3 sequence: T1 sequence

[7] = biological target: T2, C-terminally Flag-tagged human MYG1 (full length) (human); assay: co-IP; 293T cells treated with EGF (100 ng/mL, 10 h), fractioned into cytosol and nucleus, then immunoprecipitation

**Q.** With Cyt c (from UniProt P99999 1-105) as the substance, how does the binding [1] read?
**A.** Its binding is “binds”.

**Q.** And the binding [2]?
**A.** The binding was “binds”.

**Q.** For “GSK3β (from UniProt P49841 1-420) (enzyme)”, which binding [3] is on record?
**A.** Its binding is “binds”.

**Q.** What about the binding [4] of the same substance?
**A.** The binding was “binds”.

**Q.** What about the binding [5] of the same substance?
**A.** Its binding is “binds”.

**Q.** And the binding [6]?
**A.** The binding was “binds”.

**Q.** Which binding [3] does the source give for “PKM2 in 293T and HCT116 cells (from UniProt P14618 1-531) (enzyme)” here?
**A.** The binding was “binds”.

**Q.** What about the binding [7] of the same substance?
**A.** The binding was “binds”.

**Q.** Which binding [6] does the source give for “PKM2 in LoVo cells (from UniProt P14618 1-531) (enzyme)” here?
**A.** The binding was “binds”.
